PubChem BioAssay AID504804 – Drosophila RNAi Screening Center | 2011
In all, the deposit lists about 19,000 reagents; this is a random part of those that have a named target and a result. Over the whole deposit, 47 (0.25%) were called active. 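Signals are raw, not normalised; exact z-scores behind calls not deposited; actives needed confirmation, so some wells reaching 2 SD are inactive.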 Unmarked entries are inactive.

Test: 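Knock-downs shielding fly cells from apoptosis caused by DNA damage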 (primary screen)
Cells: Drosophila Kc cells
Reagent: long dsRNA against Drosophila genes, 0.5 µg dsRNA per well
Timing: 96 h (48 h knock-down, then 48 h drug)
Conditions: doxorubicin 5 µg/ml for 48 h, added 48 h after dsRNA
Detection: 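Viability measured as cellular ATP by luminescence after 48 h knock-down then 48 h doxorubicin at 5 µg/ml; unnormalised plate counts for each replicate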
Scale: raw ATP luminescence: higher = more viable cells, protection from doxorubicin
Call rule: 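Active when both duplicate wells lie at least 2 SD above the plate mean and protection is confirmed by rescreening and independent dsRNAs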

With knock-down of CG9286 [DRSC16467] the results were raw ATP luminescence, replicate 1 = 57523; raw ATP luminescence, replicate 2 = 36497.
CG1354 [DRSC17902] showed raw ATP luminescence, replicate 1 = 2.92e5; raw ATP luminescence, replicate 2 = 3.25e5.
After knock-down of Vha14-2 (Vacuolar H[+] ATPase 14kD subunit 2) [DRSC12145], the record shows raw ATP luminescence, replicate 1 = 68090; raw ATP luminescence, replicate 2 = 74927.
CG15548 [DRSC15086] gave raw ATP luminescence, replicate 1 = 48090; raw ATP luminescence, replicate 2 = 39000.
dgt4 (dim gamma-tubulin 4) [DRSC18659] scored raw ATP luminescence, replicate 1 = 41670; raw ATP luminescence, replicate 2 = 56980.
With knock-down of Mur29B (Mucin related 29B) [DRSC01018] the results were raw ATP luminescence, replicate 1 = 3.43e5; raw ATP luminescence, replicate 2 = 3.00e5.
Against Mur29B (Mucin related 29B) [DRSC02376] the deposit lists raw ATP luminescence, replicate 1 = 39463; raw ATP luminescence, replicate 2 = 89103.
Sec13 (Secretory 13) [DRSC14144] showed raw ATP luminescence, replicate 1 = 36940; raw ATP luminescence, replicate 2 = 60840.
CG12689 [DRSC17879] gave raw ATP luminescence, replicate 1 = 49100; raw ATP luminescence, replicate 2 = 44860.
Against Or33c (Odorant receptor 33c) [DRSC03388], the entry reads raw ATP luminescence, replicate 1 = 50777; raw ATP luminescence, replicate 2 = 80717.
Rh5 (Rhodopsin 5) [DRSC03412] scored raw ATP luminescence, replicate 1 = 94967; raw ATP luminescence, replicate 2 = 67017.
After knock-down of CG13605 [DRSC14608], the record shows raw ATP luminescence, replicate 1 = 35570; raw ATP luminescence, replicate 2 = 41907.
After knock-down of lectin-30A [DRSC02560], the screen gave raw ATP luminescence, replicate 1 = 44590; raw ATP luminescence, replicate 2 = 83863.
Against ZAP3 [DRSC17853], the entry reads raw ATP luminescence, replicate 1 = 3.91e5; raw ATP luminescence, replicate 2 = 3.90e5.
ZAP3 [DRSC18249] showed raw ATP luminescence, replicate 1 = 3.45e5; raw ATP luminescence, replicate 2 = 3.37e5.
After knock-down of Sec3 (Secretory 3) [DRSC10384], the screen gave raw ATP luminescence, replicate 1 = 51590; raw ATP luminescence, replicate 2 = 39587.
With knock-down of Cln7 [DRSC11005] the results were raw ATP luminescence, replicate 1 = 32013; raw ATP luminescence, replicate 2 = 32047.
Knock-down of CG16863 [DRSC01892] gave: raw ATP luminescence, replicate 1 = 77110; raw ATP luminescence, replicate 2 = 69840.
For Pms2 [DRSC07511], the entry reads raw ATP luminescence, replicate 1 = 60263; raw ATP luminescence, replicate 2 = 46070.
abo (abnormal oocyte) [DRSC02926] showed raw ATP luminescence, replicate 1 = 47773; raw ATP luminescence, replicate 2 = 90987.
Mur11Da (Mucin related 11Da) [DRSC18960] gave raw ATP luminescence, replicate 1 = 2.28e5; raw ATP luminescence, replicate 2 = 2.38e5.
Depletion of CG14883 [DRSC15007] came out at: raw ATP luminescence, replicate 1 = 83460; raw ATP luminescence, replicate 2 = 83350.
Silencing of bwa (brain washing) [DRSC01749] came out at: raw ATP luminescence, replicate 1 = 56847; raw ATP luminescence, replicate 2 = 52880.
With knock-down of bwa (brain washing) [DRSC02310], the screen gave raw ATP luminescence, replicate 1 = 49300; raw ATP luminescence, replicate 2 = 48773.
Against CG10560 [DRSC14256] the deposit lists raw ATP luminescence, replicate 1 = 74000; raw ATP luminescence, replicate 2 = 64910.
CG14370 [DRSC14832] gave raw ATP luminescence, replicate 1 = 66080; raw ATP luminescence, replicate 2 = 84840.
Sirup (Starvation-upregulated protein) [DRSC03031] gave raw ATP luminescence, replicate 1 = 57503; raw ATP luminescence, replicate 2 = 77553.
Depletion of CG6073 [DRSC15962] gave: raw ATP luminescence, replicate 1 = 2.46e5; raw ATP luminescence, replicate 2 = 2.78e5.
